In doi:10.1101/259481 (bioRxiv, 2018) one finds binding data, which are given here for 2 substances.

Results are given in words; binding and its absence hold for the method and conditions named. For part of these data: A result given as binding can be weak or reduced; the word gives no strength.

Holding throughout (test): ELISA
In general terms: In an ELISA, binding on a coated surface is turned into a signal by an enzyme label.

Experiment [1] has as its target T1, laminin-derived peptide α3_(2932-2951) (human) (UniProt Q16787).
T1 sequence (peptide): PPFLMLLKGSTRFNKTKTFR

For experiment [2], the target named is T2, recombinant laminin α3_(2928-3150) protein (human) (UniProt Q16787).
T2 sequence: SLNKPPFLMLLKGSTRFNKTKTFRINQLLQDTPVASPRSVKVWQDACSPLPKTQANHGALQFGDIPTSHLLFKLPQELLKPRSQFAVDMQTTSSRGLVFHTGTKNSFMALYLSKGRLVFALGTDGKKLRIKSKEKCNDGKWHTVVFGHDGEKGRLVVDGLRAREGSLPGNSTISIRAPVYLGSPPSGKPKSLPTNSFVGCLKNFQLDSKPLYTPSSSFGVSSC

In experiment [3] the target is T3, laminin alpha 5 LG domain recombinant protein (human) (UniProt O15230).
T3 sequence: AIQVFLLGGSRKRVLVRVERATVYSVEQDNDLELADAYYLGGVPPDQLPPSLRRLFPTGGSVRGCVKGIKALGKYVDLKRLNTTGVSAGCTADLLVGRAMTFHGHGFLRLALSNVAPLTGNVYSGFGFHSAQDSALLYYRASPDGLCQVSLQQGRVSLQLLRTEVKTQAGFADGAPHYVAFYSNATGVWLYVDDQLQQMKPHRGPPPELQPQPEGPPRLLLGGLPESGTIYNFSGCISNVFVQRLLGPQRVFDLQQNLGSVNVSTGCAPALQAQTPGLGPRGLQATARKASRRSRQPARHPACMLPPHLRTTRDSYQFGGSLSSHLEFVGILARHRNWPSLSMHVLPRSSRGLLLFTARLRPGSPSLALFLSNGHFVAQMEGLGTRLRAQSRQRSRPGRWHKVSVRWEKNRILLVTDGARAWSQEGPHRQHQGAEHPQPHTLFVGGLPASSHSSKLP

Experiment [4] concerns the target T4, laminin-derived peptide α5_(3539-3550) (human) (UniProt O15230).
T4 sequence (peptide): TLPDVGLELEVR

Experiment [5] concerns the target T5, laminin-derived peptide α5_(3312-3325) (human) (UniProt O15230).
T5 sequence (peptide): ARKASRRSRQPARH

The target in experiment [6] is T6, laminin-derived peptide α3_(3031-3043) (human) (UniProt Q16787).
T6 sequence (peptide): KNSFMALYLSKGR

In experiment [7] the target is T7, laminin-derived peptide α5_(3417-3436) (human) (UniProt O15230).
T7 sequence (peptide): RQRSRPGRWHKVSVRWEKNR

For experiment [8], the target named is T8, laminin-derived peptide α5_(3300-3330) (human) (UniProt O15230).
T8 sequence (peptide): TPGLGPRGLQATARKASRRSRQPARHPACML

Experiment [9] has as its target T9, laminin-derived peptide α3_(3043-3067) (human) (UniProt Q16787).
T9 sequence (peptide): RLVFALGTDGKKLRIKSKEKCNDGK

Turning to “vascular endothelial growth factor (VEGF)-A165 (human) (ligand)”, the binding result is given as “binds” in [1]; “binds” in [2]; “binds” in experiment [3]; “binds” in experiment [4]; “no binding (tested: 1 μg/mL)” in experiment [5]; “binds” in experiment [6]. Besides, the binding result in experiment [7], in experiment [8] and in [9] was “binds” in each case.

Turning to “vascular endothelial growth factor (VEGF)-A121 (human) (ligand)”, the binding result in [1], in [2], in experiment [3], in experiment [4], in experiment [5] and in experiment [6] was “no binding (tested: 1 μg/mL)” throughout. The binding entry in [7], in experiment [8] and in [9] was “no binding (tested: 1 μg/mL)” in each case.
